PubChem BioAssay AID1224830 | NIAID – 2016

- Test: 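Regulators of TLR4 signalling towards TNF-alpha in macrophage-like cells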 (primary screen)
- System: human THP-1 monocytic leukaemia cells, TNF dual-luciferase reporter clone, PMA-differentiated to macrophage-like cells
- Knock-down reagent: siRNA pool against human genes, 50 nM
- Duration: LPS for 4 h, given about 3 days after siRNA transfection
- Treatment: bacterial LPS (TLR4 ligand), 10 ng/ml
- Measurement: 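Ratio of firefly to renilla light, scaled to the plate median and expressed as a robust z-score per replicate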
- Reading the numbers: TNF reporter robust z-score: higher = stronger TNF reporter response to LPS
- Rule for the call: 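Each well counts as active if its z-score is over 2.8 or under -1.5; controls are left without a call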
Here is a random part of about 18,000 reagents tested. In the full data, about 2,900 (16%) were called active. 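Calls are made per well; low scores hint the gene aids the LPS response, high scores that it dampens it.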 Unmarked entries are inactive. Repeated entries: four replicate wells of each siRNA pool.

| gene | TNF reporter robust z-score |
| --- | --- |
| ZBTB47 (zinc finger and BTB domain containing 47) | 1.17 |
| ZBTB47 (zinc finger and BTB domain containing 47) | 2.09 |
| ZBTB47 (zinc finger and BTB domain containing 47) | 0.72 |
| ZBTB47 (zinc finger and BTB domain containing 47) | 1.12 |
| UBE2C (ubiquitin conjugating enzyme E2 C) | 2.75 |
| UBE2C (ubiquitin conjugating enzyme E2 C) | -0.8 |
| UBE2C (ubiquitin conjugating enzyme E2 C) | 0.21 |
| UBE2C (ubiquitin conjugating enzyme E2 C) | -0.01 |
| ZNF468 (zinc finger protein 468) | 0.1 |
| ZNF468 (zinc finger protein 468) | 0.52 |
| ZNF468 (zinc finger protein 468) | -0.51 |
| ZNF468 (zinc finger protein 468) | 0.24 |
| IZUMO4 (IZUMO family member 4) | 0.71 |
| IZUMO4 (IZUMO family member 4) | 0.78 |
| IZUMO4 (IZUMO family member 4) | 0.09 |
| IZUMO4 (IZUMO family member 4) | 0.77 |
| ARID2 (AT-rich interaction domain 2) | 1.45 |
| ARID2 (AT-rich interaction domain 2) | 0.73 |
| ARID2 (AT-rich interaction domain 2) | -0.19 |
| ARID2 (AT-rich interaction domain 2) | 0.12 |
| APEH (acylaminoacyl-peptide hydrolase) | 1.19 |
| APEH (acylaminoacyl-peptide hydrolase) | 0.59 |
| APEH (acylaminoacyl-peptide hydrolase) | 0.82 |
| APEH (acylaminoacyl-peptide hydrolase) | -0.69 |
| ZNF750 (zinc finger protein 750) | -2.1 (active) |
| ZNF750 (zinc finger protein 750) | -1.14 |
| ZNF750 (zinc finger protein 750) | -1.58 (active) |
| ZNF750 (zinc finger protein 750) | -1.44 |
| GMIP (GEM interacting protein) | -0.88 |
| GMIP (GEM interacting protein) | -0.23 |
| GMIP (GEM interacting protein) | -0.81 |
| GMIP (GEM interacting protein) | -1.09 |
| CD200 (CD200 molecule) | 0.24 |
| CD200 (CD200 molecule) | 3.16 (active) |
| CD200 (CD200 molecule) | 0.68 |
| CD200 (CD200 molecule) | 1.52 |
| ARL3 (ARF like GTPase 3) | -0.79 |
| ARL3 (ARF like GTPase 3) | 0.26 |
| ARL3 (ARF like GTPase 3) | 0.28 |
| ARL3 (ARF like GTPase 3) | -0.31 |
| SERINC2 (serine incorporator 2) | 0.98 |
| SERINC2 (serine incorporator 2) | 1.12 |
| SERINC2 (serine incorporator 2) | 1.25 |
| SERINC2 (serine incorporator 2) | 2.24 |
| SSR4 (signal sequence receptor subunit 4) | 0.25 |
| SSR4 (signal sequence receptor subunit 4) | 0.85 |
| SSR4 (signal sequence receptor subunit 4) | -0.14 |
| SSR4 (signal sequence receptor subunit 4) | 1.02 |
| SLC3A2 | -1.33 |
| SLC3A2 | -1.22 |
| SLC3A2 | -0.74 |
| SLC3A2 | -0.54 |
| CXXC5 (CXXC finger protein 5) | 0.14 |
| CXXC5 (CXXC finger protein 5) | -0.19 |
| CXXC5 (CXXC finger protein 5) | -0.13 |
| CXXC5 (CXXC finger protein 5) | 0.75 |
| GJC3 (gap junction protein gamma 3) | -0.39 |
| GJC3 (gap junction protein gamma 3) | 0.83 |
| GJC3 (gap junction protein gamma 3) | -0.99 |
| GJC3 (gap junction protein gamma 3) | -0.22 |
| RTRAF (RNA transcription, translation and transport factor) | 0.62 |
| RTRAF (RNA transcription, translation and transport factor) | 1.38 |
| RTRAF (RNA transcription, translation and transport factor) | 0.25 |
| RTRAF (RNA transcription, translation and transport factor) | 0.19 |
| RPAIN (RPA interacting protein) | 0.8 |
| RPAIN (RPA interacting protein) | 1.96 |
| RPAIN (RPA interacting protein) | 1.39 |
| RPAIN (RPA interacting protein) | 1.28 |
| CASP8 (caspase 8) | -0.54 |
| CASP8 (caspase 8) | -0.73 |
| CASP8 (caspase 8) | -0.36 |
| CASP8 (caspase 8) | -0.68 |
| SLC25A34 | 0.69 |
| SLC25A34 | 2.44 |
| SLC25A34 | 1.81 |
| SLC25A34 | 1.67 |
| ZNF425 (zinc finger protein 425) | -0.81 |
| ZNF425 (zinc finger protein 425) | -0.49 |
| ZNF425 (zinc finger protein 425) | -0.68 |
| ZNF425 (zinc finger protein 425) | 0.37 |
| TCEA3 (transcription elongation factor A3) | -0.91 |
| TCEA3 (transcription elongation factor A3) | 0.32 |
| TCEA3 (transcription elongation factor A3) | 0.76 |
| TCEA3 (transcription elongation factor A3) | 1.13 |
| LY9 (lymphocyte antigen 9) | 3.5 (active) |
| LY9 (lymphocyte antigen 9) | 2.51 |
| LY9 (lymphocyte antigen 9) | -0.18 |
| LY9 (lymphocyte antigen 9) | 0.33 |
| DERL3 (derlin 3) | -0.8 |
| DERL3 (derlin 3) | -0.56 |
| DERL3 (derlin 3) | -1 |
| DERL3 (derlin 3) | -0.63 |
| RHOG (ras homolog family member G) | 0.59 |
| RHOG (ras homolog family member G) | 0.55 |
| RHOG (ras homolog family member G) | -0.45 |
| RHOG (ras homolog family member G) | 0.81 |
| CNR1 (cannabinoid receptor 1) | 1.16 |
| CNR1 (cannabinoid receptor 1) | 2.17 |
| CNR1 (cannabinoid receptor 1) | 0.2 |
| CNR1 (cannabinoid receptor 1) | 0.84 |
| AUNIP (aurora kinase A and ninein interacting protein) | -1.35 |
| AUNIP (aurora kinase A and ninein interacting protein) | -1.28 |
| AUNIP (aurora kinase A and ninein interacting protein) | -1.16 |
| AUNIP (aurora kinase A and ninein interacting protein) | -1.01 |
| OR5I1 (olfactory receptor family 5 subfamily I member 1) | 0.18 |
| OR5I1 (olfactory receptor family 5 subfamily I member 1) | 1 |
| OR5I1 (olfactory receptor family 5 subfamily I member 1) | 1.98 |
| OR5I1 (olfactory receptor family 5 subfamily I member 1) | 2.98 (active) |
| USP25 (ubiquitin specific peptidase 25) | 0.98 |
| USP25 (ubiquitin specific peptidase 25) | 1.57 |
| USP25 (ubiquitin specific peptidase 25) | 0.78 |
| USP25 (ubiquitin specific peptidase 25) | -0.6 |

Entries listed so far called active, once more:
| gene | TNF reporter robust z-score |
| --- | --- |
| ZNF750 (zinc finger protein 750) | -2.1 (active) |
| ZNF750 (zinc finger protein 750) | -1.58 (active) |
| CD200 (CD200 molecule) | 3.16 (active) |
| LY9 (lymphocyte antigen 9) | 3.5 (active) |
| OR5I1 (olfactory receptor family 5 subfamily I member 1) | 2.98 (active) |
